Reference: patent US20030153551A1, “Method for treating ocular neovascular diseases” (priority 2002, published 2003)

Test system: retinal neovascularization
Assay: Oxygen-induced ischemic retinopathy in mice, lectin staining of retinal endothelial cells with image analysis
Format: in vivo, C57/BL6J mice
Settings: 600 mg/kg once a day for 5 days, gavage
Experimental: Ophthalmol. Vis. Sci. 35, 101-111 (1994). […] N-benzoyl-staurosporine (NBS) is dissolved in dimethyl sulfoxide (DMSO) and diluted to final concentrations with water; the maximum concentration of DMSO is 1%. Vehicle (1% DMSO) or vehicle containing various concentrations of the drug (volume=10 μl per gram body weight) is placed in the stomach by gavage. Different mice are given 60, 300 or 600 mg of NBS per kg of body weight. As a control, a group of mice are given the vehicle without NBS.
Some slides are counterstained with hematoxyln and all were mounted with Cytoseal.

SMILES: CO[C@@H]1[C@H](N(C)C(=O)c2ccccc2)C[C@H]2O[C@]1(C)n1c3ccccc3c3c4c(c5c6ccccc6n2c5c31)C(=O)NC4 [NBS, N-benzoyl-staurosporine]
- inhibition of neovascularization (endothelial cells on the surface of the retina, high magnification): complete inhibition of neovascularization
